The other results are listed elsewhere or left out. Most entries show no effect beyond the scatter of the controls.

Protein sequences, listed by entry. Tags and fused reporters are not part of them. Lines headed by an entry give the natural chain unless they say otherwise; changes in a name come on top.
UniProt P52333: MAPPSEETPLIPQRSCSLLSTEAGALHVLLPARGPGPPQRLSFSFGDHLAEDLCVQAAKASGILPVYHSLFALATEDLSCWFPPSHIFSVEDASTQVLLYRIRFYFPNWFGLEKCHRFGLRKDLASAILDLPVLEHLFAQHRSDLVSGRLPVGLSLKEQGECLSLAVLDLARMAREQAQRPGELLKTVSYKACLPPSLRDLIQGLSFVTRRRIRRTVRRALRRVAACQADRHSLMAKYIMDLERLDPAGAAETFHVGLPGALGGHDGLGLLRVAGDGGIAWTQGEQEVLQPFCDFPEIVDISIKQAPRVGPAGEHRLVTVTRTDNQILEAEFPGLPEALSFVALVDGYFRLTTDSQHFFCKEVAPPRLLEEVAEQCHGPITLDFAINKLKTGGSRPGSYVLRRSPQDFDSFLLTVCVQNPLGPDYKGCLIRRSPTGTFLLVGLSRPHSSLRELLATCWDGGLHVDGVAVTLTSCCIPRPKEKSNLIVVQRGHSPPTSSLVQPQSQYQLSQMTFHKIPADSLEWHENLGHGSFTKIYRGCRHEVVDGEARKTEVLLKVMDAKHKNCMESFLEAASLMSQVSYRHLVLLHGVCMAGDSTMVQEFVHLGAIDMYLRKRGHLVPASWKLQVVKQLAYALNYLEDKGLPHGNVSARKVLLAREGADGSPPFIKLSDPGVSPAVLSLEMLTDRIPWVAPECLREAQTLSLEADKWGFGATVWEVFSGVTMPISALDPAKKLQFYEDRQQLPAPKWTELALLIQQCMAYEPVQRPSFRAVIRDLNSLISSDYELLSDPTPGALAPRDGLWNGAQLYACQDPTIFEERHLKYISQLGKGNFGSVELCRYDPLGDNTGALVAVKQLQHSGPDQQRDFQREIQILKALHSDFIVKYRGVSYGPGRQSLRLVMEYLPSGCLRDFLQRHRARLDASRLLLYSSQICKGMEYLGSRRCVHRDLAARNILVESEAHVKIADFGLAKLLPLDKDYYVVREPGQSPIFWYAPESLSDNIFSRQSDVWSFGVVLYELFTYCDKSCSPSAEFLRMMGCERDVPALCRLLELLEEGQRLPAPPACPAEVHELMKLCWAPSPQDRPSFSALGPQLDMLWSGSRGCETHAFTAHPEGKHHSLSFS
UniProt P50454: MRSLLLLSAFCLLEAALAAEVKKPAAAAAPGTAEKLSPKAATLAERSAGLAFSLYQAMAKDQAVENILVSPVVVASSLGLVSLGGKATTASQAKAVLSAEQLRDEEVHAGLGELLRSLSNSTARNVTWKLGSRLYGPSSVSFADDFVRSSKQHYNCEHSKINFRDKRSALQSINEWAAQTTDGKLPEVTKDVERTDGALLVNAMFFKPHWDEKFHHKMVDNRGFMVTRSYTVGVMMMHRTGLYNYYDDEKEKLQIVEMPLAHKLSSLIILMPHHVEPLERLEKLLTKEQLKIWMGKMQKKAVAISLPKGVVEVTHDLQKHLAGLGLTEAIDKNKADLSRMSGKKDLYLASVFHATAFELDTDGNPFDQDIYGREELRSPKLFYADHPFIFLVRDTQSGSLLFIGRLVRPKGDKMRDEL
UniProt P53396: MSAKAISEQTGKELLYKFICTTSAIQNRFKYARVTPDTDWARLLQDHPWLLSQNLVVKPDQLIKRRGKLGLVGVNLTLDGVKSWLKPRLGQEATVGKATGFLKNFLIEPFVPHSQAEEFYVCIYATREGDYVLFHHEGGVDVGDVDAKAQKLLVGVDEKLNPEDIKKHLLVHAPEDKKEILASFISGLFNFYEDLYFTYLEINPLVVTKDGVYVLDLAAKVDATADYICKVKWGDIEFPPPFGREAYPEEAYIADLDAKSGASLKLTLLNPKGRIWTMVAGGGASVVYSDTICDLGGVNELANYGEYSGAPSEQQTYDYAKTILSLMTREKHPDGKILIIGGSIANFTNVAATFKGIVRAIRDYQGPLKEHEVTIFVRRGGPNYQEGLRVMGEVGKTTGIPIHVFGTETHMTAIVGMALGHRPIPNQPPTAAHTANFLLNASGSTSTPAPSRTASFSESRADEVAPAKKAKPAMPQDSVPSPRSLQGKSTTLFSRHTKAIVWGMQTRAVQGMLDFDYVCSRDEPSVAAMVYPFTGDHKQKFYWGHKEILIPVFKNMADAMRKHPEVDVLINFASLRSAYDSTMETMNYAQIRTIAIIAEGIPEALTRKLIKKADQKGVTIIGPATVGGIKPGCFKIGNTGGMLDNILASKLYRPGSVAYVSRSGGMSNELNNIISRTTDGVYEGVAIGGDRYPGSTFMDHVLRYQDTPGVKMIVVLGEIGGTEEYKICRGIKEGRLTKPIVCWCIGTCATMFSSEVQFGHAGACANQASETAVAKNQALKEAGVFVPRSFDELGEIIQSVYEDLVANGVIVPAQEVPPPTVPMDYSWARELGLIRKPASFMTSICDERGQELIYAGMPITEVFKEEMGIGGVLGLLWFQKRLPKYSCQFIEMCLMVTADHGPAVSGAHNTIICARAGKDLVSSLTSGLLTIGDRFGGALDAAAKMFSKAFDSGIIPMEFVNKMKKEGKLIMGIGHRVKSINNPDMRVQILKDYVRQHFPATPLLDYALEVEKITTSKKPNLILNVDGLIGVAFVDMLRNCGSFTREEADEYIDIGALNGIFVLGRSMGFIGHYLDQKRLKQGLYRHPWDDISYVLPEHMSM
UniProt P48201: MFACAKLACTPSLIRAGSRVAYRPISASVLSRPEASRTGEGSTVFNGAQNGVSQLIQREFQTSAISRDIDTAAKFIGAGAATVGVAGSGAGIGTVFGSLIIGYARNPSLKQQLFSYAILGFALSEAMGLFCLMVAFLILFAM
UniProt P49916: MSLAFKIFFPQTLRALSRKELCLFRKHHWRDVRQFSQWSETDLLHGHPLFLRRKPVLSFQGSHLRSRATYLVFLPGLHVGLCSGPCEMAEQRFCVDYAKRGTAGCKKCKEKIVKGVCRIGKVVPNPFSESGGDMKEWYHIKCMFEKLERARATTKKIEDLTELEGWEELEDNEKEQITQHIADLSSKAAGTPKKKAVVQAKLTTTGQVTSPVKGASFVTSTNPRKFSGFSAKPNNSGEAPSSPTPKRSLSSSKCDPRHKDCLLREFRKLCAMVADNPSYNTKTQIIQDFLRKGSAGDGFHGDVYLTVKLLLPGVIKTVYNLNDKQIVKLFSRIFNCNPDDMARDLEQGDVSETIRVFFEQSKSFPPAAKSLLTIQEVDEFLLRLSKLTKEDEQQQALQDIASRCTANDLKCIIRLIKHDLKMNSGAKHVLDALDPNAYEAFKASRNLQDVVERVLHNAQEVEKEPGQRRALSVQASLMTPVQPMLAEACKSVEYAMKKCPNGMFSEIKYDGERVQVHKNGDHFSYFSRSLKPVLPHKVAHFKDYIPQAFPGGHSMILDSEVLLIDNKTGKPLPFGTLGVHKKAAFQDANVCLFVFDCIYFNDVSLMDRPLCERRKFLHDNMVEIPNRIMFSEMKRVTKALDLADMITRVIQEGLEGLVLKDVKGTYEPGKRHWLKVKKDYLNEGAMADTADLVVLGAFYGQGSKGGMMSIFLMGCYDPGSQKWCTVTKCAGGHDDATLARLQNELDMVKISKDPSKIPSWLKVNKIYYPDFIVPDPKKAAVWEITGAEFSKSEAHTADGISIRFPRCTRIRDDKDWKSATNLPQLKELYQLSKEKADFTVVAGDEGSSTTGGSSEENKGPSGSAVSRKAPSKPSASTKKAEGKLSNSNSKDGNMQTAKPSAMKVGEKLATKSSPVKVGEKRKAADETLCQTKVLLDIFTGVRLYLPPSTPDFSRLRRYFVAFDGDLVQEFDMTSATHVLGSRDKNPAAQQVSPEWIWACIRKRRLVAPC
UniProt P51116, whole entry: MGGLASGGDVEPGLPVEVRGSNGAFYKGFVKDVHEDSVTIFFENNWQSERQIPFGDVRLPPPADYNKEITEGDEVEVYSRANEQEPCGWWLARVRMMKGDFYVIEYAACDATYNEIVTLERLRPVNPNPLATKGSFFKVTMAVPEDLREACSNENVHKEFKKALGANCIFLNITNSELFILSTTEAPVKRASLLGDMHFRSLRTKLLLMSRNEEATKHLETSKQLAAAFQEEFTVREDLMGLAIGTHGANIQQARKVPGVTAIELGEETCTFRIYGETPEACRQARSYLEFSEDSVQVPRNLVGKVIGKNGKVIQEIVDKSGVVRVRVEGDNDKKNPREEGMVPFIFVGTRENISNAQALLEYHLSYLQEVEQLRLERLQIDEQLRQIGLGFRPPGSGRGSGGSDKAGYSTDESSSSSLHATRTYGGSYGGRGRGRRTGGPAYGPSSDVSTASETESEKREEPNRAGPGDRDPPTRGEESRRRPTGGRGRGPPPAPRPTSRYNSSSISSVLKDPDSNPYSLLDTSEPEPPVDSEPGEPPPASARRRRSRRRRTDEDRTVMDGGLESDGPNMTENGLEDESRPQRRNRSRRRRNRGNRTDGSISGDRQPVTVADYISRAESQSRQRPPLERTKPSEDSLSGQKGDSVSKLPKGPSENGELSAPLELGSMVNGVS
UniProt P49756, whole entry: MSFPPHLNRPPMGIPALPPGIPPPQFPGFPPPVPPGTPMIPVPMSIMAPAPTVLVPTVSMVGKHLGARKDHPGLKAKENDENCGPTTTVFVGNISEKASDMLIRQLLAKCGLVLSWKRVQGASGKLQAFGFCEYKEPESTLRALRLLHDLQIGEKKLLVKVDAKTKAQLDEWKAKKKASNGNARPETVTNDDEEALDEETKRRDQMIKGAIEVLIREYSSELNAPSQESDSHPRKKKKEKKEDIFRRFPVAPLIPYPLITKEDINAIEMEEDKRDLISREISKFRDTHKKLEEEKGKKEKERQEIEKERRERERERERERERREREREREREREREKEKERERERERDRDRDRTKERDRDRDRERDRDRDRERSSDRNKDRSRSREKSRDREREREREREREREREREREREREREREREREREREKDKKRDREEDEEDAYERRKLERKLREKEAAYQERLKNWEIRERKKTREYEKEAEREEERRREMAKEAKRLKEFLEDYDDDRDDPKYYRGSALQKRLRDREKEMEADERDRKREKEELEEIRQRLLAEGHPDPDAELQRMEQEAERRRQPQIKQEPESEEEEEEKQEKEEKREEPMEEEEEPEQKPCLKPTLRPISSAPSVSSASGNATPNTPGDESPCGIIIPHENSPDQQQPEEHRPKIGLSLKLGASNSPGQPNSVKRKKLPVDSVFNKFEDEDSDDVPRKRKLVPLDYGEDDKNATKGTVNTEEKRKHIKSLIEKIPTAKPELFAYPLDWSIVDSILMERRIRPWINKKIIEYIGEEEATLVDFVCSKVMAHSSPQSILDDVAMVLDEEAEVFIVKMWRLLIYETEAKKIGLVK
UniProt P52298: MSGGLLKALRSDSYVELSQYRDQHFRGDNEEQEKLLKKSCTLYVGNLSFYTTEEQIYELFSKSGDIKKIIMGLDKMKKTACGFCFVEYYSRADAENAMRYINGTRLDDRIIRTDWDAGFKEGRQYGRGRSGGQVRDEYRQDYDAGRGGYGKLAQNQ
UniProt P50995, whole entry: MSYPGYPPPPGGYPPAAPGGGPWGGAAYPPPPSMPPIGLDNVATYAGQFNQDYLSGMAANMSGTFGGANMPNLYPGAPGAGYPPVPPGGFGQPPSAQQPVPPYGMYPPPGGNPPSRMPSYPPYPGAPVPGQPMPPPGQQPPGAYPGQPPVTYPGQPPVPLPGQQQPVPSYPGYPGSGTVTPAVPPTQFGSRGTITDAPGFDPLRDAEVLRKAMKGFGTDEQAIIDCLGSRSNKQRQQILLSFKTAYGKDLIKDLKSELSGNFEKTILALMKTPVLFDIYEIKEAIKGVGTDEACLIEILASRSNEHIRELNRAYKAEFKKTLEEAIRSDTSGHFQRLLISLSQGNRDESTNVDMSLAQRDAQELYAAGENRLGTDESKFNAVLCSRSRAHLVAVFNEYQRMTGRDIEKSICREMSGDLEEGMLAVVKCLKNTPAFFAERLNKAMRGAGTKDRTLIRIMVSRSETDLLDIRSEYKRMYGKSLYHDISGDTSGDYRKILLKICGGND
UniProt P49458: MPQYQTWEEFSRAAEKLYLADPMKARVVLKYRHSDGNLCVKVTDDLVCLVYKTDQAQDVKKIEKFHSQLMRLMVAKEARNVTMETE
UniProt P48735: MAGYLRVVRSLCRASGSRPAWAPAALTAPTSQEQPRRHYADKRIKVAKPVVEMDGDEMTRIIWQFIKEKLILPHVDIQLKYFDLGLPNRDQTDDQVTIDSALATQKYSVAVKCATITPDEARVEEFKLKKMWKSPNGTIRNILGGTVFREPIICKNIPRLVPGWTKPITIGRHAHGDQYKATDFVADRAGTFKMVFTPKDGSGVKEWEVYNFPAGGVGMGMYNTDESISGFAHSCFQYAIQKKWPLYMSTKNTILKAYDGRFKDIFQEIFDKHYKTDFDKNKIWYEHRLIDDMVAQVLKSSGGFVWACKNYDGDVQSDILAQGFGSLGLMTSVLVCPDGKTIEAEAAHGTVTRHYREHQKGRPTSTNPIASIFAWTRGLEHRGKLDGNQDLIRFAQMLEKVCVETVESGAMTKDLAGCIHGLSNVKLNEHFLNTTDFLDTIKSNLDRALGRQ

Compound in this test: CN[C@@H]1C[C@H]2O[C@@](C)([C@@H]1OC)n1c3ccccc3c3c4c(c5c6ccccc6n2c5c31)C(=O)NC4 [staurosporine]
In words: log2 fold change of tryptic peptide abundance, ligand vs vehicle (limited proteolysis) (log2 ratio); higher = more trypsin-susceptible (destabilized). The note with it: ligand concentration: 20 uM; sample: K562 cleared lysate; digestion: 4 min, 22 C (HT-PELSA RT4min, Orbitrap Astral).
In the case of “JAK3 (peptide sequence: KLQFYEDR, peptide start residue: 762) (UniProt P52333)”, the log2 fold change came to 0.143.

Consider “SERPINH1 (peptide sequence: TDGALLVNAMFFKPHWDEK, peptide start residue: 195) (UniProt P50454)”, for which the log2 fold change was -0.198. As to “ACLY (peptide sequence: TASFSESR, peptide start residue: 453) (UniProt P53396)”, the log2 fold change was -0.129.

As for “UniProt P48201 (peptide sequence: LACTPSLIR, peptide start residue: 7)”, the log2 fold change was 0.395. The value for “LIG3 (peptide sequence: LTTTGQVTSPVK, peptide start residue: 202) (UniProt P49916)” was 0.295; that for “FXR2 (peptide sequence: RASLLGDMHFR, peptide start residue: 190) (UniProt P51116)” was -0.581; that for “RBM25 (peptide sequence: KLVPLDYGEDDKNATK, peptide start residue: 711) (UniProt P49756)” was -0.133. As to “NCBP2 (peptide sequence: DQHFRGDNEEQEK, peptide start residue: 22) (UniProt P52298)”, the log2 fold change was -0.204.

Regarding “ANXA11 (peptide sequence: NTPAFFAER, peptide start residue: 431) (UniProt P50995)”, the log2 fold change was determined as 0.217. The value for “SRP9 (peptide sequence: FHSQLMR, peptide start residue: 65) (UniProt P49458)” was 0.148; that for “IDH2 (peptide sequence: IKVAKPVVEMDGDEMTR, peptide start residue: 44) (UniProt P48735)” was 0.334.

The values are drawn from the supplement of paper PMC12819154, “High-throughput peptide-centric local stability assay extends protein–ligand identification to membrane proteins, tissues and bacteria” (Nature Structural & Molecular Biology, 2025).
